# PubChem BioAssay AID504764 – Drosophila RNAi Screening Center – 2011
# Test: 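Genes whose knock-down alters Notch-dependent transcription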 (primary screen)
# Cells: Drosophila Kc167 cells
# Reagent: long dsRNA against Drosophila genes
# Time to read-out: about 5 days (4 days dsRNA, then 24 h after transfection)
# Conditions: transfection of constitutively active membrane-tethered Notch lacking the extracellular domain, read 24 h later
# Measurement: 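Light from a Notch-responsive E(spl)m3 luciferase reporter under active Notch, with control-promoter and no-Notch reporter wells to normalise; raw counts from paired wells a and b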
# Scale: induced reporter light, run 1, well a and induced reporter light, run 1, well b: higher = more light from the Notch target reporter with active Notch; control promoter light, run 1, well a and control promoter light, run 1, well b: higher = more light from the viral control promoter (cell number, transfection, viability); uninduced reporter light, run 1, well a: higher = more light from the Notch target reporter without active Notch
# Call rule: 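Wells with low control signal or poorly matching duplicates excluded; duplicates averaged; per source plate, z beyond ±2 for induced/control log2 ratio or beyond ±1.8 for induced/uninduced marks a hit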
# Meaning of the calls: active = modifier hit (raised or lowered Notch signal); inactive = not a hit
# The deposit covers about 22,000 reagents; below is a random part of those with a known target gene and a result. Over the whole deposit, 403 (1.9%) got an active call. 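Unnormalised raw counts per well; ratio z-scores behind the hit calls and whether each hit raises or lowers signal are not deposited.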 A plus sign joins genes that one reagent is predicted to hit. Not given: the amount of reagent.
gene,dsRNA,"induced reporter light, run 1, well a","induced reporter light, run 1, well b","control promoter light, run 1, well a","control promoter light, run 1, well b","uninduced reporter light, run 1, well a",Outcome
CG33285,DRSC11463,2.08e5,2.14e5,2.56e5,2.66e5,18905,inactive
otk2 (off-track2),DRSC07303,97075,96800,95060,1.16e5,8765,inactive
CG7715,DRSC16301,1.74e5,1.74e5,1.76e5,1.59e5,12705,inactive
Oscillin,DRSC03001,1.83e5,1.59e5,1.86e5,1.69e5,11400,inactive
dob (doppelganger von brummer),DRSC19948,2.06e5,1.90e5,2.30e5,2.34e5,12350,inactive
sws (swiss cheese),DRSC18843,84405,57255,1.21e5,92830,5150,inactive
if (inflated),DRSC20341,1.11e5,90330,1.49e5,1.02e5,11895,inactive
CG31760,DRSC02590,1.32e5,1.48e5,1.23e5,1.45e5,11015,inactive
Usp20-33 (Ubiquitin specific protease 20/33),DRSC07196,1.37e5,1.74e5,1.45e5,1.48e5,14450,inactive
CG13869 + CG11099,DRSC06428,32895,34995,41295,36370,4070,inactive
Ntf-2r (Nuclear transport factor-2-related),DRSC02019,1.59e5,1.40e5,1.92e5,1.94e5,16985,inactive
wash (washout),DRSC06302,1.08e5,95155,1.20e5,97125,7730,inactive
unc-4,DRSC20381,1.07e5,79570,1.02e5,1.09e5,13685,inactive
CG33330 (retired record),DRSC13053,8420,8990,4355,3455,2840,inactive
CG33330 (retired record),DRSC15495,1.06e5,1.34e5,78610,72510,8470,inactive
CAHbeta (Carbonic anhydrase beta),DRSC14449,1.24e5,1.22e5,95985,74665,10145,inactive
Sec61beta (Sec61 beta subunit),DRSC07548,1.13e5,1.10e5,1.20e5,1.12e5,10038,inactive
Dhpr (Dihydropteridine reductase),DRSC11135,2.50e5,1.61e5,2.49e5,2.17e5,10765,inactive
CG17107,DRSC02575,2.19e5,2.47e5,1.47e5,1.52e5,27565,inactive
CG15721,DRSC19688,1.27e5,99410,1.33e5,1.13e5,7835,inactive
Noa36,DRSC16761,1.76e5,1.79e5,2.11e5,2.25e5,13620,inactive
CG13494,DRSC04139,45535,33365,39150,31185,2060,inactive

Part of the list above, showing only “induced reporter light, run 1, well b”.
if (inflated) [DRSC20341]	90330
CG31760 [DRSC02590]	1.48e5
Usp20-33 (Ubiquitin specific protease 20/33) [DRSC07196]	1.74e5

The results go on.
gene,dsRNA,"induced reporter light, run 1, well a","induced reporter light, run 1, well b","control promoter light, run 1, well a","control promoter light, run 1, well b","uninduced reporter light, run 1, well a",Outcome
CG17568,DRSC02628,25635,34580,37245,29075,1480,inactive
mus101 (mutagen-sensitive 101),DRSC19388,1.01e5,85060,72425,81020,5755,active
Vha100-3 (Vacuolar H[+] ATPase 100kD subunit 3),DRSC05760,17120,16500,9610,10865,3315,inactive
Cpr47Ee (Cuticular protein 47Ee),DRSC06343,11815,8560,13505,10605,3665,inactive
CG8031,DRSC16364,1.74e5,1.35e5,1.07e5,1.04e5,8675,inactive
CG31301,DRSC22164,,,,,,inactive
CG10920,DRSC17765,2.05e5,1.81e5,2.79e5,3.42e5,13320,inactive
"E(spl)m3-HLH (Enhancer of split m3, helix-loop-helix)",DRSC16694,21075,16600,10790,14155,4665,inactive
CG14757,DRSC06492,1.87e5,1.53e5,2.50e5,2.52e5,15195,inactive
rngo (rings lost),DRSC19903,1.95e5,1.97e5,3.19e5,3.10e5,15440,inactive
Obp56a (Odorant-binding protein 56a),DRSC06085,1.01e5,1.03e5,96585,1.11e5,7785,inactive
CG9876,DRSC04586,1.67e5,1.56e5,1.23e5,1.11e5,11365,inactive
CG10035,DRSC14177,80330,67470,78490,57810,4150,inactive
CG31638,DRSC02269,1.10e5,93805,1.05e5,81640,9605,inactive
CG31638,DRSC03259,2.06e5,1.59e5,2.40e5,2.11e5,9490,inactive
Dcr-1 (Dicer-1),DRSC15646,2.04e5,1.85e5,2.22e5,2.44e5,15260,inactive
CG15251 (retired record),DRSC17980,1.26e5,1.41e5,2.46e5,2.71e5,9780,inactive
CG12643,DRSC17849,1.23e5,1.22e5,1.74e5,1.90e5,7545,inactive
CG15905,DRSC06591,1.11e5,86670,1.44e5,1.53e5,9040,inactive
Best1 (Bestrophin 1),DRSC16909,76170,82015,91800,69840,5625,inactive
nrm (neuromusculin),DRSC11597,2.14e5,2.01e5,3.46e5,3.33e5,16845,inactive
nrm (neuromusculin),DRSC11599,2.33e5,2.21e5,3.16e5,2.45e5,23410,inactive
nrm (neuromusculin),DRSC11897,87125,82560,94615,77625,7190,inactive
CG7102,DRSC02647,1.56e5,1.89e5,1.67e5,1.94e5,16300,inactive
CG7102,DRSC03007,1.47e5,1.70e5,1.27e5,1.17e5,17615,inactive
CG31075,DRSC16016,1.28e5,1.52e5,1.97e5,1.75e5,12205,inactive
ACXB (Adenylyl cyclase X B),DRSC00845,1.31e5,1.58e5,1.46e5,1.45e5,10815,inactive
AnxB11 (Annexin B11),DRSC19331,1.36e5,1.18e5,1.87e5,1.50e5,10820,inactive
